Test results from publication PMC4585807.
No constants are given. Whether binding was seen depends on the method and setting. For some assays here: A result given as binding can be weak or reduced; the word gives no strength. Where a sequence is shown, tags or fusion partners need not be part of it. For some assays here: Binding seen in cells or lysates may run through a third protein.

T1: BD-VQ29 (Arabidopsis) (UniProt Q9SZG3)
T1 sequence: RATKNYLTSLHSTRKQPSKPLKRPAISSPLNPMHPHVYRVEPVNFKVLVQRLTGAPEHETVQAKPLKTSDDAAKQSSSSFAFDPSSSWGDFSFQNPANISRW


Columns and labels:
BD-VQ29 (Arabidopsis) = target: T1, BD-VQ29 (Arabidopsis); experiment: two-hybrid; directed test in yeast Y2HGold; bait in pGBKT7 (Gal4 DNA-binding domain), prey in pGADT7; growth on selective media lacking Leu/Trp/His/Ade and containing 10 mM 3-aminotriazole
[1] = target: VQ12-cYFP / VQ12-nYFP (Arabidopsis) (UniProt O81005); experiment: split reporter; BiFC with nYFP and cYFP fusions co-infiltrated by Agrobacterium EHA105 in N. benthamiana leaves; confocal microscopy 48 h after infiltration
[2] = target: C-terminal part of VQ12 (yeast two-hybrid) (Arabidopsis); experiment: two-hybrid; directed test in yeast Y2HGold; bait in pGBKT7 (Gal4 DNA-binding domain), prey in pGADT7; growth on selective media lacking Leu/Trp/His/Ade and containing 10 mM 3-aminotriazole
[3] = target: C-terminal part of VQ29 (yeast two-hybrid) (Arabidopsis); experiment: as above
[4] = target: N-terminal part of VQ12 containing the VQ motif (yeast two-hybrid) (Arabidopsis); experiment: as above
[5] = target: N-terminal part of VQ29 containing the VQ motif (yeast two-hybrid) (Arabidopsis); experiment: as above
[6] = target: VQ12 with the VQ motif mutated (LVQR to EDLE) (yeast two-hybrid) (Arabidopsis); experiment: as above
[7] = target: VQ29 with the VQ motif mutated (LVQR to EDLE) (yeast two-hybrid) (Arabidopsis) (UniProt Q9SZG3); experiment: as above

binding (BD-VQ29 (Arabidopsis)) | Molecule | further results
binds | AD-VQ3 (from UniProt Q9LMP5) | –
binds | AD-VQ6 (Arabidopsis) | –
binds | AD-VQ12 (Arabidopsis) | –
binds | AD-VQ26 (from UniProt Q9M1D4) | –
binds weakly | AD-VQ30 (Arabidopsis) | –
binds | AD-VQ32 (from UniProt Q9FIP7) | –
binds | AD-VQ34 (Arabidopsis) | –
– | VQ29-cYFP / VQ29-nYFP (protein, UniProt Q9SZG3 1-123) MEATSQQFMSQSYLNAQETTTRATKNYLTSLHSTRKQPSKPLKRPAISSPLNPMHPHVYRVEPVNFKVLVQRLTGAPEHETVQAKPLKTSDDAAKQSSSSFAFDPSSSWGDFSFQNPANISRW | binding [1]: binds
– | AD-VQ29 (protein, UniProt Q9SZG3 1-123) MEATSQQFMSQSYLNAQETTTRATKNYLTSLHSTRKQPSKPLKRPAISSPLNPMHPHVYRVEPVNFKVLVQRLTGAPEHETVQAKPLKTSDDAAKQSSSSFAFDPSSSWGDFSFQNPANISRW | binding [2]: binds; binding [3]: binds; binding [4]: no binding; binding [5]: no binding; binding [6]: binds; binding [7]: binds
